The results in this text go back to the supplement of paper PMC7877785.

± gives the uncertainty stated by the source. Many of these values have a large error.

The nature of the data set: self-splicing fitness, log relative to wild type (ln ratio); higher = more splicing; Tetrahymena group I intron in knt gene, E. coli kanamycin selection, DiMSum; sequences stand for … in CUCUCU…GGAGGGAAAAGUUAUCAGGCAUGCACCUGGUAGCUAGUCUUUAAACCAAUAGAUUGCAUCGGUUUAAAAGGCAAGACCGUCAAAUUGCGGGAAAGGGGUCAACAGCCGUUCAGUACCAAGUCUCAGGGGAAACUUUGAGAUGGCCUUGCAAAGGGUAUGGUAAUAAGCUGACGGACAUGGUCCUAACCACGCAGCCAAGUCCUAAGUCAACAGAUCUUCUGUUGAUAUGGAUGCAGUUCACAGACUAAAUGUCGGUCGGGGAAGAUGUAUUCUUCUCAUAAGAUAUAGUCGGACCUCUCCUUAAUGGGAGCUAGCGGAUGAAGUGAUGCAACACUGGAGCCGCUGGGAACUAAUUUGUAUGCGAAAGUAUAUUGAUUAGUUUUGGAGUACUCGUGGUCG
In short, it runs like this: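 Six replicate transformations of E. coli BL21(DE3) with a pET-22b(+) library were grown overnight at 37°C or 30°C. The library randomised all eight P1ex-region intron nucleotides, the intron lying in the knt kanamycin-resistance gene, and plates were LB agar with or without 25 μg/mL kanamycin plus 100 μg/mL carbenicillin, 50 μM IPTG and 0.2% rhamnose. Pooled colonies were amplicon-sequenced on an Illumina HiSeq 2500, and fitness is the DiMSum error-weighted combination of wild-type-normalised replicate fold changes, kanamycin versus none.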

As for CUUUAGCAAUAUUACGACUC, under “37 °C”, the “self-splicing fitness (ln)” value was -2.04 ± 0.56.

For the sequence AGAGAGCAAUAUUACGCCAU, the “self-splicing fitness (ln)” value (30 °C) was -3.13 ± 1. On to CCCGAGCAAUAUUACGAACG, for which the “self-splicing fitness (ln)” value (30 °C) is -1.87 ± 0.58.

With UGGGAGCAAUAUUACGAUCU, the “self-splicing fitness (ln)” value is -2.66 ± 0.62 (30 °C) and -0.727 ± 0.77 (37 °C). Regarding ACGGAGCAAUAUUACGGGGG, under “30 °C”, the “self-splicing fitness (ln)” value was -3.87 ± 0.52.

Take GGUAAGCAAUAUUACGAUAG: the “self-splicing fitness (ln)” value by setting is: (30 °C) -3.14 ± 0.2; (37 °C) -2.14 ± 0.24. For GUAAAGCAAUAUUACGCUCC, the “self-splicing fitness (ln)” value (30 °C) was -3.66 ± 0.73. The same measure, in the same setting: for UGCUAGCAAUAUUACGUGCC the value was -0.755 ± 0.73. AUUGAGCAAUAUUACGCGCC: where the note is “37 °C”, the “self-splicing fitness (ln)” value was -2.47 ± 1.1. In the case of UGAUAGCAAUAUUACGAUGU, the “self-splicing fitness (ln)” value (30 °C) is -2.72 ± 0.63. Take CGAGAGCAAUAUUACGCCGU: the “self-splicing fitness (ln)” value (37 °C) was -1.51 ± 0.7. On to AUUAAGCAAUAUUACGAAUG, for which the “self-splicing fitness (ln)” value (30 °C) is -2.82 ± 0.2 and the “self-splicing fitness (ln)” value (37 °C) is -0.206 ± 0.2. For GAGAAGCAAUAUUACGCCAG, the “self-splicing fitness (ln)” value (30 °C) is -2.86 ± 0.79. On to GUCCAGCAAUAUUACGCCGU, for which the “self-splicing fitness (ln)” value is -1.29 ± 0.13 (30 °C) and -0.122 ± 0.13 (37 °C). Regarding GAGGAGCAAUAUUACGUAUA, the “self-splicing fitness (ln)” value (30 °C) is -4.04 ± 0.73. Take CUGAAGCAAUAUUACGAGCC: the “self-splicing fitness (ln)” value (37 °C) was -2.48 ± 0.63. Regarding GAGUAGCAAUAUUACGCUAC, the “self-splicing fitness (ln)” value runs as follows: (30 °C) -2.49 ± 0.66; (37 °C) -0.778 ± 1.4. UAUGAGCAAUAUUACGACUC: the “self-splicing fitness (ln)” value by setting is: (30 °C) -4.17 ± 1.1; (37 °C) -2.18 ± 0.6.

As to CGAAAGCAAUAUUACGCCAC, the “self-splicing fitness (ln)” value (37 °C) was -2.05 ± 0.57.

CCCGAGCAAUAUUACGCGCC: the “self-splicing fitness (ln)” value (30 °C) is -4.59 ± 0.58. Turning to CAGAAGCAAUAUUACGUUCC, the “self-splicing fitness (ln)” value (30 °C) is -1.85 ± 0.54.

Consider UCCAAGCAAUAUUACGUCGU, for which the “self-splicing fitness (ln)” value runs as follows: (30 °C) -0.899 ± 0.073; (37 °C) -0.178 ± 0.085. As for UUGGAGCAAUAUUACGACAC, the “self-splicing fitness (ln)” value (30 °C) was -2.93 ± 0.78 and the “self-splicing fitness (ln)” value (37 °C) is -2.36 ± 0.37. As to UCACAGCAAUAUUACGGACC, the “self-splicing fitness (ln)” value (30 °C) was -3.6 ± 0.78. As to GCCAAGCAAUAUUACGACAG, the “self-splicing fitness (ln)” value runs as follows: (30 °C) -3.63 ± 0.2; (37 °C) -3.8 ± 0.39.

For UUUGAGCAAUAUUACGAGUA, under “30 °C”, the “self-splicing fitness (ln)” value is -3.35 ± 0.74.

As to CUUGAGCAAUAUUACGAUCC, the “self-splicing fitness (ln)” value (30 °C) was -3.34 ± 1.1. On to CGUCAGCAAUAUUACGUGGC, for which the “self-splicing fitness (ln)” value is -4.27 ± 0.59 (30 °C) and -2.25 ± 0.55 (37 °C).

In the case of GGGGAGCAAUAUUACGGCAG, the “self-splicing fitness (ln)” value (37 °C) is -1.69 ± 0.82. Regarding GAAUAGCAAUAUUACGCCUC, the “self-splicing fitness (ln)” value runs as follows: (30 °C) -1.36 ± 0.84; (37 °C) -0.693 ± 0.82. For GCGGAGCAAUAUUACGGACC, for the setting “37 °C”, the “self-splicing fitness (ln)” value is -1.47 ± 0.87. Turning to GCCAAGCAAUAUUACGUCGG, the “self-splicing fitness (ln)” value (30 °C) is -2.95 ± 0.18 and the “self-splicing fitness (ln)” value (37 °C) was -2.28 ± 0.24. Turning to GCCUAGCAAUAUUACGCUAG, the “self-splicing fitness (ln)” value (30 °C) is -4.7 ± 0.72. For the sequence GAGAAGCAAUAUUACGCACC, the “self-splicing fitness (ln)” value runs as follows: (30 °C) -1.91 ± 0.28; (37 °C) -1.41 ± 0.42.

As to CCGAAGCAAUAUUACGACAU, the “self-splicing fitness (ln)” value (30 °C) is -3.977 ± 0.028 and the “self-splicing fitness (ln)” value (37 °C) was -2.82 ± 0.04. For the sequence CUAAAGCAAUAUUACGUACC, the “self-splicing fitness (ln)” value (30 °C) was -2.71 ± 0.5. For AAUGAGCAAUAUUACGCCAA, the “self-splicing fitness (ln)” value by setting is: (30 °C) -2.51 ± 0.62; (37 °C) -1.13 ± 0.5. In the case of UGCGAGCAAUAUUACGCAUG, where the note is “30 °C”, the “self-splicing fitness (ln)” value is -2.43 ± 0.56. Still for that read-out and setting: next, UGCGAGCAAUAUUACGCAGC: -4.38 ± 0.51; UGCGAGCAAUAUUACGUCAA: -4.58 ± 1. Turning to ACAGAGCAAUAUUACGCAAG, the “self-splicing fitness (ln)” value by setting is: (30 °C) -3.99 ± 0.39; (37 °C) -2.33 ± 0.25. On to UUGGAGCAAUAUUACGGAGA, for which the “self-splicing fitness (ln)” value was -2.59 ± 0.37 (30 °C) and -1.08 ± 0.23 (37 °C). In the case of AGCUAGCAAUAUUACGCAUC, the “self-splicing fitness (ln)” value (37 °C) was -2.32 ± 0.64. In the case of AGGAAGCAAUAUUACGCCGC, the “self-splicing fitness (ln)” value was -1.48 ± 0.76 (30 °C) and -1.03 ± 0.93 (37 °C).

Regarding CUCGAGCAAUAUUACGGGAC, the “self-splicing fitness (ln)” value was -3.8 ± 0.24 (30 °C) and -2.41 ± 0.27 (37 °C). As to AUGGAGCAAUAUUACGCCCC, the “self-splicing fitness (ln)” value (30 °C) is -4.04 ± 1.1 and the “self-splicing fitness (ln)” value (37 °C) is -1.69 ± 1.2. Take GUUCAGCAAUAUUACGAGCA: the “self-splicing fitness (ln)” value (30 °C) was -4.17 ± 1.1.

Take UGAGAGCAAUAUUACGGUUU: where the note is “37 °C”, the “self-splicing fitness (ln)” value was -3.27 ± 0.74. In the case of AGUAAGCAAUAUUACGCUUC, the “self-splicing fitness (ln)” value was -3.44 ± 0.56 (30 °C) and -2.03 ± 0.64 (37 °C). The like results for UAAUAGCAAUAUUACGGUCC were, in that order, -2.53 ± 0.33 and -0.635 ± 0.55. As to CUUUAGCAAUAUUACGCCCC, the “self-splicing fitness (ln)” value (37 °C) was -1.79 ± 0.67. UAAGAGCAAUAUUACGCCGC: the “self-splicing fitness (ln)” value (37 °C) is -2.88 ± 1.1.

With CCGGAGCAAUAUUACGCUGG, where the note is “37 °C”, the “self-splicing fitness (ln)” value was -2.13 ± 0.5. On to UCUCAGCAAUAUUACGUUUA, for which the “self-splicing fitness (ln)” value by setting is: (30 °C) -2.98 ± 0.18; (37 °C) -1.08 ± 0.13. Take GGCUAGCAAUAUUACGACCC: the “self-splicing fitness (ln)” value by setting is: (30 °C) -1.79 ± 0.36; (37 °C) -0.966 ± 0.37. Regarding GUGUAGCAAUAUUACGCACA, the “self-splicing fitness (ln)” value (30 °C) was -2.84 ± 0.54. For GAAGAGCAAUAUUACGUCCC, the “self-splicing fitness (ln)” value (30 °C) is -2.04 ± 0.87 and the “self-splicing fitness (ln)” value (37 °C) is -0.44 ± 1.

As to GUUGAGCAAUAUUACGCAGC, the “self-splicing fitness (ln)” value (37 °C) is -2.64 ± 0.75.

As for CUCAAGCAAUAUUACGUGCC, the “self-splicing fitness (ln)” value was -2.96 ± 0.11 (30 °C) and -2.29 ± 0.17 (37 °C). On to AUGGAGCAAUAUUACGACCG, for which the “self-splicing fitness (ln)” value reads like this: (30 °C) -3.83 ± 0.37; (37 °C) -1.19 ± 0.26.

Regarding CCCGAGCAAUAUUACGGACC, the “self-splicing fitness (ln)” value (37 °C) was -4.55 ± 0.72. GCGGAGCAAUAUUACGGAAG: under “30 °C”, the “self-splicing fitness (ln)” value is -3.53 ± 0.6.

For CGGGAGCAAUAUUACGGCAU, for the setting “30 °C”, the “self-splicing fitness (ln)” value was -6.77 ± 1.

Turning to GCCAAGCAAUAUUACGAGUU, the “self-splicing fitness (ln)” value (30 °C) was -1.7 ± 0.066 and the “self-splicing fitness (ln)” value (37 °C) is -0.45 ± 0.08. With AGCGAGCAAUAUUACGGACG, the “self-splicing fitness (ln)” value (30 °C) is -3.09 ± 0.63. In the case of UCUCAGCAAUAUUACGCGAG, the “self-splicing fitness (ln)” value was -3.73 ± 0.37 (30 °C) and -0.582 ± 0.15 (37 °C).

For CCUUAGCAAUAUUACGGGUU, the “self-splicing fitness (ln)” value (30 °C) is -3.63 ± 0.53. On to CAUCAGCAAUAUUACGCGAC, for which the “self-splicing fitness (ln)” value runs as follows: (30 °C) -4.17 ± 0.29; (37 °C) -2.92 ± 0.22. Turning to GCGGAGCAAUAUUACGCGAC, the “self-splicing fitness (ln)” value (30 °C) was -2.97 ± 0.77. For UGCGAGCAAUAUUACGAGAG, the “self-splicing fitness (ln)” value (37 °C) was -3.58 ± 0.51. As for UAUGAGCAAUAUUACGUGAC, the “self-splicing fitness (ln)” value (30 °C) is -3.78 ± 0.73.

Consider AACGAGCAAUAUUACGACAC, for which the “self-splicing fitness (ln)” value (30 °C) is -4.43 ± 0.73. The same measure, in the same setting: for UCCUAGCAAUAUUACGAUCU the value was -4.47 ± 0.73. With CAGCAGCAAUAUUACGUCCC, the “self-splicing fitness (ln)” value (37 °C) was -1.99 ± 0.79. Turning to GAGGAGCAAUAUUACGACCU, where the note is “37 °C”, the “self-splicing fitness (ln)” value was -0.979 ± 0.59. As for CGGUAGCAAUAUUACGACAC, the “self-splicing fitness (ln)” value reads like this: (30 °C) -2.19 ± 0.66; (37 °C) -0.595 ± 1.4.

For UCAAAGCAAUAUUACGAGCC, the “self-splicing fitness (ln)” value (37 °C) is -3.03 ± 0.74.
